Drawing on paper PMC7819943, “Rice protein-binding microarrays: a tool to detect cis-acting elements near promoter regions in rice”, this text covers binding signal for 42 sequences.

The other results are listed elsewhere or left out.

The target of this experiment is T1, OsSMF1 (Oryza sativa, UniProt Q6ZLB0 1-436).
T1 sequence: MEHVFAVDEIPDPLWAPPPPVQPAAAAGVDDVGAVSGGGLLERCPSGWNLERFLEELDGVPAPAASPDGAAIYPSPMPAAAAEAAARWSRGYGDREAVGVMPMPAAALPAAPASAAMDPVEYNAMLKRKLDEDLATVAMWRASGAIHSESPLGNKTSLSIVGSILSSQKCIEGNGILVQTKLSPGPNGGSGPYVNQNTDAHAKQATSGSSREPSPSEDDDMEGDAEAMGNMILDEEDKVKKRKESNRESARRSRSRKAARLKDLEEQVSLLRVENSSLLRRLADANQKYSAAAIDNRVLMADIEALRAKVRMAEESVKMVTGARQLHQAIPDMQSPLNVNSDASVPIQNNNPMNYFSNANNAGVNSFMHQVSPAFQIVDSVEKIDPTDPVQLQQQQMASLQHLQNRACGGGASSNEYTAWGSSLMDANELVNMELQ
As to the kind of experiment: protein-binding microarray (RPBM); PBS, 2% BSA, 51.3 ng/ul salmon testes DNA, 50 uM zinc acetate, 200 nM TF, 25 C, 1 h; high values mean tight binding. Conditions: protein: recombinant; tags: N-terminal polyhistidine and DsRed monomer fusion (pET32a); chain copies: 2; label: CyDye5-dUTP incorporated in the synthesized complementary strand; 3' TTTTT single-stranded linker to array surface; dsDNA, one strand shown. The essentials: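 Polyhistidine-tagged DsRed fusions of transcription factors, joined at the N-terminus, were expressed in E. coli BL21-CodonPlus and isolated on Ni–NTA. They were incubated at 200 nM for 1 h at 25 °C on a custom Agilent array, double-stranded and BSA-blocked, in PBS with 2% BSA, salmon testes DNA and 50 µM zinc acetate. The binding signal is per-feature fluorescence intensity (arbitrary units) read on an Axon 4000B scanner after washing.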
On to “GTTTCTTCGTTTTAACACCACGTTTGCACTCTGCTCCACTCGGAGTCACCTAGTGCAG”, for which the binding signal is 4990 fluorescence intensity (a.u.).

Regarding “AATGTTCATCAGTTGACGTATTGGGCGATCTGTTGGAATCCGGAGTCACCTAGTGCAG”, the binding signal is 8640 fluorescence intensity (a.u.). In the case of “TCTGGGTGAAACACTGAAACCTCCAAACGCCAGTCACCGGCGGAGTCACCTAGTGCAG”, the binding signal was 3610 fluorescence intensity (a.u.). In the case of “CTGCGTTACTTCGACATTGCCCGACGTGTTGACTGTGTTGCGGAGTCACCTAGTGCAG”, the binding signal is 4070 fluorescence intensity (a.u.). For the sequence “CCTCGCACATGGCCTCCCACATCGATGTGTCAACATAGGCCGGAGTCACCTAGTGCAG”, the binding signal is 4360 fluorescence intensity (a.u.). For the sequence “CTTACCAAATTTTAGCAGCGCCAAAATTTTGGTAAATTGGCGGAGTCACCTAGTGCAG”, the binding signal is 3380 fluorescence intensity (a.u.). For the sequence “TAAAGATTCAAGGCCATGACGCCATGAAGATTCAAGGCCCCGGAGTCACCTAGTGCAG”, the binding signal is 4000 fluorescence intensity (a.u.).

Consider “TCCTCGTCGCCGTCGTCGTGGCGACGTGGGCAACCGACGCCGGAGTCACCTAGTGCAG”, for which the binding signal is 4810 fluorescence intensity (a.u.). Turning to “GCATCGCCATCGCCGCGTGGTGGCGCACCATTCGCGTCACCGGAGTCACCTAGTGCAG”, the binding signal was 5300 fluorescence intensity (a.u.). Under “TAAGTAAGGAACGTGGATATTTGTATTTTGTAATGGAATTCGGAGTCACCTAGTGCAG” stands 3170 fluorescence intensity (a.u.); under “CGACTTCTTGACGAGGATGTTGTCGGCGTGTCGGTCGATGCGGAGTCACCTAGTGCAG”, 3450 fluorescence intensity (a.u.); under “GTAACATGGTGATTCAGCACTCCTGGTGAAGTTGTGACATCGGAGTCACCTAGTGCAG”, 5470 fluorescence intensity (a.u.).

With “ACCACTCTCCGCCTCCCTGGCCGCCGTCGCGCCGGGTCGACGGAGTCACCTAGTGCAG”, the binding signal is 9860 fluorescence intensity (a.u.). With “ACCTTGTACTTTTGTCTACATATGTGTCATTCTATCTTGGCGGAGTCACCTAGTGCAG”, the binding signal was 5120 fluorescence intensity (a.u.). With “TGCAGTAGGCGGCCGAGCTCCTGGTTGTCGGCGTCCAGCGCGGAGTCACCTAGTGCAG”, the binding signal was 5160 fluorescence intensity (a.u.). With “GAGATTGTGTGTGTATAGAATGAGTTGTGAATTTGGTAATCGGAGTCACCTAGTGCAG” the figure was 3540 fluorescence intensity (a.u.); with “CAATTTGGCAGGTGGGTACAATTTGGTGTAAGAACTTGAGCGGAGTCACCTAGTGCAG”, 3280 fluorescence intensity (a.u.). With “GGCTAATTCGATCTGACATGGCACCGATGTGGGCGCTTACCGGAGTCACCTAGTGCAG” the figure was 9740 fluorescence intensity (a.u.). Take “AACAAAAGGCAAGGACAGGGAGCTGGCACGTCACTGACCGCGGAGTCACCTAGTGCAG”: the binding signal was 4340 fluorescence intensity (a.u.). For “CTACTTCCTCCGTTTCATAATGTAAGTCATTCTAGCATTTCGGAGTCACCTAGTGCAG”, the binding signal is 3170 fluorescence intensity (a.u.). Take “TTAAACGTTCGATATAATAGGGTGTACAAGTTTTACGTGGCGGAGTCACCTAGTGCAG”: the binding signal is 14300 fluorescence intensity (a.u.).

“TGACCGTGTGTGTTGCGTAATCAAACTATGATATCTTCTTCGGAGTCACCTAGTGCAG”: the binding signal is 8350 fluorescence intensity (a.u.). As for “TGGGATTAACCGAGGTGGTGTGTGGTGATGTGTACGAGGACGGAGTCACCTAGTGCAG”, the binding signal was 5400 fluorescence intensity (a.u.). In the case of “GAACACAGCTATAGAGTCAGTCCAGTCAGCCAGCCAGGGGCGGAGTCACCTAGTGCAG”, the binding signal is 6100 fluorescence intensity (a.u.). As to “ATTACAAGCACAAGGTGGGTTTATTATTTGAGTGCTATATCGGAGTCACCTAGTGCAG”, the binding signal was 22400 fluorescence intensity (a.u.). Take “ATTGCTCCAGGCCAAGCACGCTTAACCCTGGAGTTTTCGGCGGAGTCACCTAGTGCAG”: the binding signal is 3800 fluorescence intensity (a.u.). In the case of “CCTCCTGGCACTAAAGAGAAGTTATGGATGATGCAAGACCCGGAGTCACCTAGTGCAG”, the binding signal was 3450 fluorescence intensity (a.u.). On to “TCACCACCAACAAGAATGTCCATGTCATCCTTCCACCATCCGGAGTCACCTAGTGCAG”, for which the binding signal was 4730 fluorescence intensity (a.u.). For the sequence “GGTGACCCATAGATAAGCCCACATAACCAACTCATCAAGCCGGAGTCACCTAGTGCAG”, the binding signal was 27900 fluorescence intensity (a.u.). For “CTCATCCTAAGATGATGAATTGGTGACGATGGTGATGTTCCGGAGTCACCTAGTGCAG”, the binding signal is 4450 fluorescence intensity (a.u.). For the sequence “CAGTATAGGCATGCTGTGCCACGTAGGCGCGCCATGTCAGCGGAGTCACCTAGTGCAG”, the binding signal was 30600 fluorescence intensity (a.u.).

As for “ACCACCACCTTCGCCACGAGCTCCACGCCGTTGCCACTGTCGGAGTCACCTAGTGCAG”, the binding signal is 20900 fluorescence intensity (a.u.). “GGAAAGAGACACCTGTGTGACACGTCGTCCCGTGTAGCCACGGAGTCACCTAGTGCAG”: the binding signal is 9750 fluorescence intensity (a.u.). Regarding “AGTTATATAGTTCCTGCTGCTAATGCTTCTGGTGGTCTTTCGGAGTCACCTAGTGCAG”, the binding signal is 3910 fluorescence intensity (a.u.). For the sequence “CGAACGGTCGTCTGCCACGTCATTTTCGCCGCCCTCTGAGCGGAGTCACCTAGTGCAG”, the binding signal was 38100 fluorescence intensity (a.u.). Take “GTTAATTAAGTGTCGATGCTTACGTGGCAGTGATAGACGTCGGAGTCACCTAGTGCAG”: the binding signal is 20100 fluorescence intensity (a.u.). As for “TCGAACCAACTCGACTACAATCTCGCCAGATCTGACAAGTCGGAGTCACCTAGTGCAG”, the binding signal was 24100 fluorescence intensity (a.u.). On to “ATCACGTAGTAAACTTACCGTAAGATTGTGTGACTAGGCACGGAGTCACCTAGTGCAG”, for which the binding signal was 5320 fluorescence intensity (a.u.). For “GACAATGATCATCAGACCCAGGCACCCAGCCTTTCATTTTCGGAGTCACCTAGTGCAG”, the binding signal is 6040 fluorescence intensity (a.u.). For the sequence “GCCGCCTAACTCCTCTGCGGCCGCCACGTGCACGCGCCGCCGGAGTCACCTAGTGCAG”, the binding signal is 7330 fluorescence intensity (a.u.). Regarding “GCATTTTATATGTTGTGAGTTGTGACCTCATTTCATTGTACGGAGTCACCTAGTGCAG”, the binding signal was 3570 fluorescence intensity (a.u.). For “GAGCCTGAAGAAACCAGCTCCGTCTCGATGCTCATACATACGGAGTCACCTAGTGCAG”, the binding signal was 17100 fluorescence intensity (a.u.).
